Reference: the supplement of paper PMC8612539
Values after ≈ are worked out from the molar mass of the structure shown. The source gives many values for each of these; only a part stands here.

Tested on: Mannheimia haemolytica
Assay: minimum inhibitory concentration (MIC)
Description: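 Broth microdilution MIC (Sensititre BOPO7F bovine plate, CLSI methods) of 19 antimicrobials against field isolates of P. multocida, M. haemolytica, H. somni (deep nasopharyngeal swabs) and E. coli, Enterococcus spp. (rectal swabs) from weaned dairy heifers. Incubation 16-24 h at 35 C. MIC is the lowest concentration preventing visible growth. Values with <= or > lie at the tested range limits. Trimethoprim-sulfamethoxazole is given as the trimethoprim component of a 1:19 mixture.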

Structure (SMILES)	minimum inhibitory concentration (isolate (source animal id): 3) [mg/L]	minimum inhibitory concentration (isolate (source animal id): 60) [mg/L]	minimum inhibitory concentration (isolate (source animal id): 61) [mg/L]	minimum inhibitory concentration (isolate (source animal id): 64) [mg/L]	minimum inhibitory concentration (isolate (source animal id): 65) [mg/L]	minimum inhibitory concentration (isolate (source animal id): 66) [mg/L]	minimum inhibitory concentration (isolate (source animal id): 67) [mg/L]	minimum inhibitory concentration (isolate (source animal id): 68) [mg/L]	minimum inhibitory concentration (isolate (source animal id): 70) [mg/L]	minimum inhibitory concentration (isolate (source animal id): 72) [mg/L]	minimum inhibitory concentration (isolate (source animal id): 74) [mg/L]	minimum inhibitory concentration (isolate (source animal id): 76) [mg/L]	minimum inhibitory concentration (isolate (source animal id): 80) [mg/L]	minimum inhibitory concentration (isolate (source animal id): 82) [mg/L]	minimum inhibitory concentration (isolate (source animal id): 83) [mg/L]	minimum inhibitory concentration (isolate (source animal id): 84) [mg/L]	minimum inhibitory concentration (isolate (source animal id): 85) [mg/L]	minimum inhibitory concentration (isolate (source animal id): 86) [mg/L]	minimum inhibitory concentration (isolate (source animal id): 87) [mg/L]
CC1(C)S[C@@H]2[C@H](NC(=O)[C@H](N)c3ccccc3)C(=O)N2[C@H]1C(=O)O [Ampicillin]	≤ 0.25	≤ 0.25	> 16	≤ 0.25	> 16	≤ 0.25	≤ 0.25	≤ 0.25	≤ 0.25	≤ 0.25	> 16	≤ 0.25	> 16	≤ 0.25	≤ 0.25	≤ 0.25	≤ 0.25	≤ 0.25	≤ 0.25
CO/N=C(\C(=O)N[C@@H]1C(=O)N2C(C(=O)O)=C(CSC(=O)c3ccco3)CS[C@H]12)c1csc(N)n1 [Ceftiofur]	≤ 0.25	≤ 0.25	≤ 0.25	≤ 0.25	≤ 0.25	≤ 0.25	≤ 0.25	≤ 0.25	≤ 0.25	≤ 0.25	≤ 0.25	≤ 0.25	≤ 0.25	≤ 0.25	≤ 0.25	≤ 0.25	≤ 0.25	≤ 0.25	≤ 0.25
CCC[C@@H]1C[C@@H](C(=O)N[C@@H]([C@H]2O[C@H](SC)[C@H](O)[C@@H](O)[C@H]2O)[C@H](C)Cl)N(C)C1 [Clindamycin]	16 (≈ 37.6 µM)	16 (≈ 37.6 µM)	> 16	16 (≈ 37.6 µM)	> 16	16 (≈ 37.6 µM)	> 16	16 (≈ 37.6 µM)	> 16	16 (≈ 37.6 µM)	> 16	16 (≈ 37.6 µM)	> 16	> 16	8 (≈ 18.8 µM)	> 16	16 (≈ 37.6 µM)	16 (≈ 37.6 µM)	16 (≈ 37.6 µM)
CN1C[C@@H]2C[C@H]1CN2c1cc2c(cc1F)c(=O)c(C(=O)O)cn2C1CC1 [Danofloxacin]	0.5 (≈ 1.4 µM)	0.5 (≈ 1.4 µM)	> 1	0.25 (≈ 0.7 µM)	> 1	0.5 (≈ 1.4 µM)	> 1	0.5 (≈ 1.4 µM)	> 1	0.5 (≈ 1.4 µM)	> 1	0.5 (≈ 1.4 µM)	0.5 (≈ 1.4 µM)	> 1	≤ 0.12	0.5 (≈ 1.4 µM)	> 1	> 1	> 1
CCN1CCN(c2cc3c(cc2F)c(=O)c(C(=O)O)cn3C2CC2)CC1 [Enrofloxacin]	0.5 (≈ 1.39 µM)	1 (≈ 2.78 µM)	> 2	0.25 (≈ 0.696 µM)	> 2	0.5 (≈ 1.39 µM)	> 2	0.5 (≈ 1.39 µM)	> 2	0.5 (≈ 1.39 µM)	> 2	0.5 (≈ 1.39 µM)	0.5 (≈ 1.39 µM)	> 2	≤ 0.12	0.5 (≈ 1.39 µM)	2 (≈ 5.56 µM)	2 (≈ 5.56 µM)	2 (≈ 5.56 µM)
CS(=O)(=O)c1ccc([C@@H](O)[C@@H](CF)NC(=O)C(Cl)Cl)cc1 [Florfenicol]	1 (≈ 2.79 µM)	2 (≈ 5.58 µM)	> 8	2 (≈ 5.58 µM)	> 8	2 (≈ 5.58 µM)	> 8	2 (≈ 5.58 µM)	> 8	2 (≈ 5.58 µM)	> 8	1 (≈ 2.79 µM)	2 (≈ 5.58 µM)	> 8	0.5 (≈ 1.4 µM)	> 8	2 (≈ 5.58 µM)	2 (≈ 5.58 µM)	2 (≈ 5.58 µM)
CCCN1C[C@H](C)[C@@H](O)[C@](C)(O)[C@@H](CC)OC(=O)[C@H](C)[C@@H](O[C@H]2C[C@@](C)(OC)[C@@H](O)[C@H](C)O2)[C@H](C)[C@@H](O[C@@H]2O[C@H](C)C[C@H](N(C)C)[C@H]2O)[C@](C)(O)C[C@H]1C [Gamithromycin]	≤ 1	> 8	8 (≈ 10.3 µM)	≤ 1	8 (≈ 10.3 µM)	> 8	8 (≈ 10.3 µM)	≤ 1	> 8	≤ 1	8 (≈ 10.3 µM)	≤ 1	2 (≈ 2.57 µM)	> 8	≤ 1	> 8	4 (≈ 5.15 µM)	2 (≈ 2.57 µM)	2 (≈ 2.57 µM)
CNC(C)C1CCC(N)C(OC2C(N)CC(N)C(OC3OCC(C)(O)C(NC)C3O)C2O)O1 (configuration not stated) [Gentamicin]	4 (≈ 8.38 µM)	4 (≈ 8.38 µM)	2 (≈ 4.19 µM)	2 (≈ 4.19 µM)	2 (≈ 4.19 µM)	4 (≈ 8.38 µM)	2 (≈ 4.19 µM)	2 (≈ 4.19 µM)	16 (≈ 33.5 µM)	2 (≈ 4.19 µM)	2 (≈ 4.19 µM)	2 (≈ 4.19 µM)	4 (≈ 8.38 µM)	16 (≈ 33.5 µM)	2 (≈ 4.19 µM)	2 (≈ 4.19 µM)	4 (≈ 8.38 µM)	4 (≈ 8.38 µM)	4 (≈ 8.38 µM)
NC[C@@H]1O[C@H](O[C@H]2[C@@H](O)[C@H](O[C@@H]3[C@@H](O)[C@H](N)C[C@H](N)[C@H]3O[C@H]3O[C@H](CN)[C@@H](O)[C@H](O)[C@H]3N)O[C@@H]2CO)[C@H](N)[C@@H](O)[C@@H]1O [Neomycin]	> 32	> 32	> 32	32 (≈ 52.1 µM)	> 32	> 32	> 32	32 (≈ 52.1 µM)	> 32	> 32	> 32	32 (≈ 52.1 µM)	> 32	> 32	8 (≈ 13 µM)	> 32	> 32	> 32	> 32
CC1(C)S[C@@H]2[C@H](NC(=O)Cc3ccccc3)C(=O)N2[C@H]1C(=O)O [Penicillin]	0.25 (≈ 0.748 µM)	0.25 (≈ 0.748 µM)	> 8	0.25 (≈ 0.748 µM)	> 8	0.25 (≈ 0.748 µM)	0.25 (≈ 0.748 µM)	0.25 (≈ 0.748 µM)	0.5 (≈ 1.5 µM)	0.25 (≈ 0.748 µM)	> 8	≤ 0.12	> 8	0.25 (≈ 0.748 µM)	0.5 (≈ 1.5 µM)	0.5 (≈ 1.5 µM)	≤ 0.12	≤ 0.12	≤ 0.12
CN[C@@H]1[C@H](O)[C@H](NC)[C@H]2O[C@@]3(O)C(=O)C[C@@H](C)O[C@H]3O[C@@H]2[C@H]1O [Spectinomycin]	32 (≈ 96.3 µM)	> 64	32 (≈ 96.3 µM)	32 (≈ 96.3 µM)	32 (≈ 96.3 µM)	> 64	16 (≈ 48.1 µM)	32 (≈ 96.3 µM)	> 64	32 (≈ 96.3 µM)	32 (≈ 96.3 µM)	32 (≈ 96.3 µM)	> 64	> 64	32 (≈ 96.3 µM)	32 (≈ 96.3 µM)	> 64	> 64	> 64
CN(C)[C@@H]1C(O)=C(C(N)=O)C(=O)[C@@]2(O)C(O)=C3C(=O)c4c(O)cccc4[C@@](C)(O)[C@H]3C[C@@H]12 [Tetracycline]	> 8	> 8	> 8	> 8	> 8	8 (≈ 18 µM)	> 8	> 8	> 8	> 8	> 8	> 8	> 8	> 8	≤ 0.5	> 8	> 8	8 (≈ 18 µM)	> 8
C=C[C@]1(C)C[C@@H](OC(=O)CSCCN(CC)CC)[C@]2(C)[C@H](C)CC[C@]3(CCC(=O)[C@H]32)[C@@H](C)[C@@H]1O [Tiamulin]	8 (≈ 16.2 µM)	32 (≈ 64.8 µM)	8 (≈ 16.2 µM)	8 (≈ 16.2 µM)	8 (≈ 16.2 µM)	16 (≈ 32.4 µM)	8 (≈ 16.2 µM)	8 (≈ 16.2 µM)	8 (≈ 16.2 µM)	8 (≈ 16.2 µM)	8 (≈ 16.2 µM)	8 (≈ 16.2 µM)	16 (≈ 32.4 µM)	8 (≈ 16.2 µM)	16 (≈ 32.4 µM)	32 (≈ 64.8 µM)	16 (≈ 32.4 µM)	16 (≈ 32.4 µM)	16 (≈ 32.4 µM)
CC[C@H]1OC(=O)C[C@@H](O)[C@H](C)[C@@H](O[C@@H]2O[C@H](C)[C@@H](O)[C@H](N(C)C)[C@H]2O)[C@@H](CCN2CCCCC2)C[C@@H](C)C(=O)/C=C/C(C)=C/[C@@H]1CN1CCCCC1 [Tildipirosin]	≤ 1	> 16	> 16	≤ 1	> 16	> 16	> 16	≤ 1	> 16	≤ 1	> 16	≤ 1	8 (≈ 10.9 µM)	> 16	≤ 1	> 16	16 (≈ 21.8 µM)	16 (≈ 21.8 µM)	16 (≈ 21.8 µM)
CC[C@H]1OC(=O)C[C@@H](O)[C@H](C)[C@@H](O[C@@H]2O[C@H](C)[C@@H](O)[C@H](N(C)C)[C@H]2O)[C@@H](CCN2C[C@H](C)C[C@H](C)C2)C[C@@H](C)C(=O)/C=C/C(C)=C/[C@@H]1CO[C@@H]1O[C@H](C)[C@@H](O)[C@@H](OC)[C@H]1OC [Tilmicosin]	4 (≈ 4.6 µM)	> 16	> 16	4 (≈ 4.6 µM)	> 16	> 16	> 16	4 (≈ 4.6 µM)	> 16	4 (≈ 4.6 µM)	> 16	4 (≈ 4.6 µM)	16 (≈ 18.4 µM)	> 16	8 (≈ 9.2 µM)	> 16	16 (≈ 18.4 µM)	16 (≈ 18.4 µM)	16 (≈ 18.4 µM)
CCCNC[C@]1(O)[C@H](C)O[C@@H](O[C@H]2[C@H](C)[C@@H](O[C@@H]3O[C@H](C)C[C@H](N(C)C)[C@H]3O)[C@](C)(O)C[C@@H](C)CN[C@H](C)[C@@H](O)[C@](C)(O)[C@@H](CC)OC(=O)[C@@H]2C)C[C@@]1(C)OC [Tulathromycin]	≤ 8	> 64	32 (≈ 39.7 µM)	≤ 8	32 (≈ 39.7 µM)	> 64	32 (≈ 39.7 µM)	≤ 8	> 64	≤ 8	32 (≈ 39.7 µM)	≤ 8	16 (≈ 19.8 µM)	> 64	≤ 8	> 64	16 (≈ 19.8 µM)	16 (≈ 19.8 µM)	16 (≈ 19.8 µM)
CC[C@H]1OC(=O)C[C@@H](O)[C@H](C)[C@@H](O[C@@H]2O[C@H](C)[C@@H](O[C@H]3C[C@@](C)(O)[C@@H](O)[C@H](C)O3)[C@H](N(C)C)[C@H]2O)[C@@H](CC=O)C[C@@H](C)C(=O)/C=C/C(C)=C/[C@@H]1CO[C@@H]1O[C@H](C)[C@@H](O)[C@@H](OC)[C@H]1OC [Tylosin]	32 (≈ 34.9 µM)	> 32	> 32	32 (≈ 34.9 µM)	> 32	> 32	> 32	32 (≈ 34.9 µM)	> 32	> 32	> 32	32 (≈ 34.9 µM)	> 32	> 32	> 32	> 32	> 32	> 32	> 32
COc1cc(NS(=O)(=O)c2ccc(N)cc2)nc(OC)n1 [sulfadimethoxine]	> 256	> 256	> 256	> 256	> 256	> 256	> 256	> 256	> 256	> 256	> 256	> 256	> 256	> 256	≤ 256	> 256	> 256	> 256	> 256
